In PMC6269477:
No constants are given. Whether binding was seen depends on the method and setting. Binding seen in cells or lysates may run through a third protein. Some results given as binding are weak or reduced against the parent protein; the word gives no strength.

Tests used:
Experiment in all cases: cross-linking + co-IP; wild-type BW25113 cells cross-linked with DSP; membrane extract (1% Triton X-100, 1 M NaCl) precipitated with antibodies against PBP1A, PBP1B, PBP3 or ZipA on protein G agarose; cross-link reversed, ZipA or FtsN detected by western blot
[1] = target: T1, PBP1B (endogenous) (E. coli (endogenous in BW25113)) (UniProt P02919)
T1 sequence: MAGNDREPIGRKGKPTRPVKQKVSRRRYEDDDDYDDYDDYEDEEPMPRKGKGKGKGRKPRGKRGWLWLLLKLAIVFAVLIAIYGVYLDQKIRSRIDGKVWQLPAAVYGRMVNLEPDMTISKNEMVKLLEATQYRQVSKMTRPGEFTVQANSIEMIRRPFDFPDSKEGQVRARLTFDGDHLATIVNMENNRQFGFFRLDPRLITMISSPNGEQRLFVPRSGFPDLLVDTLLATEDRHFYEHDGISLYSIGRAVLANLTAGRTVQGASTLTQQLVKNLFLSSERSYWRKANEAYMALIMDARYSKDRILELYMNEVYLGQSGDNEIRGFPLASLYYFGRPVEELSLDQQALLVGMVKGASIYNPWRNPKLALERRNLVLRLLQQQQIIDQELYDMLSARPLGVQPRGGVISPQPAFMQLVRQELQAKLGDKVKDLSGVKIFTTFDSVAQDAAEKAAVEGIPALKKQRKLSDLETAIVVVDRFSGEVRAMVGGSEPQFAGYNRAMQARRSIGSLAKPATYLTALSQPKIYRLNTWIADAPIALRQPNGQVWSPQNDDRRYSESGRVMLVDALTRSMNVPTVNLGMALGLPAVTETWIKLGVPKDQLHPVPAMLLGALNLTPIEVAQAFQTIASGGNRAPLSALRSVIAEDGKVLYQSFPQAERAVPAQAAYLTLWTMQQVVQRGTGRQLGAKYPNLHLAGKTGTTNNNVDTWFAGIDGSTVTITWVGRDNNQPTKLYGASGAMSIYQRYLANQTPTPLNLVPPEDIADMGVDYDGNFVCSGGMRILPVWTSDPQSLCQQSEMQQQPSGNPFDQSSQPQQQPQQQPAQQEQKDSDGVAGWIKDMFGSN

[2] = target: T2, PBP1A (endogenous) (E. coli (endogenous in BW25113)) (UniProt P02918)
T2 sequence: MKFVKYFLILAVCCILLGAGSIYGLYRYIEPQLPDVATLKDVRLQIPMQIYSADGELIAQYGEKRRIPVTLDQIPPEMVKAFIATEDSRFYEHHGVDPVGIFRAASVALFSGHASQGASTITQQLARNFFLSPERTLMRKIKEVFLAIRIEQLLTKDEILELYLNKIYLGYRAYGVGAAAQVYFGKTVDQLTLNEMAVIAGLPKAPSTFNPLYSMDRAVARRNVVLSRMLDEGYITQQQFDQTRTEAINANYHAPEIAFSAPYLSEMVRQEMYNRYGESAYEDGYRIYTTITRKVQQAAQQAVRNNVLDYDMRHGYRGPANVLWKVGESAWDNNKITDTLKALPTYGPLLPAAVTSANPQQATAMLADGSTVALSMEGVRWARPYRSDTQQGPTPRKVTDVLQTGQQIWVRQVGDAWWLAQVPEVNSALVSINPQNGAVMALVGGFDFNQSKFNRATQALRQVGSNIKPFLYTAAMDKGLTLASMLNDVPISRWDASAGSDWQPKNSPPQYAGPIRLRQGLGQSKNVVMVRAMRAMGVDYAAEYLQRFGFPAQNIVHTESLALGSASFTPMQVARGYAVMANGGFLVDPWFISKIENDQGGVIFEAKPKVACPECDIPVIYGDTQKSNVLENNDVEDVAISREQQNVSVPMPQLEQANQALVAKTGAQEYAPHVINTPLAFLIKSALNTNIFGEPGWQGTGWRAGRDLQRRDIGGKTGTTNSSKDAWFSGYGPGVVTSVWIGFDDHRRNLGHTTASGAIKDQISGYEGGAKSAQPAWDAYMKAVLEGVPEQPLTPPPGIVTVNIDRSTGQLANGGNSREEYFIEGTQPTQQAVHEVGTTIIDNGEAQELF

[3] = target: T3, PBP3 (endogenous) (E. coli (endogenous in BW25113)) (UniProt P0AD68)
T3 sequence: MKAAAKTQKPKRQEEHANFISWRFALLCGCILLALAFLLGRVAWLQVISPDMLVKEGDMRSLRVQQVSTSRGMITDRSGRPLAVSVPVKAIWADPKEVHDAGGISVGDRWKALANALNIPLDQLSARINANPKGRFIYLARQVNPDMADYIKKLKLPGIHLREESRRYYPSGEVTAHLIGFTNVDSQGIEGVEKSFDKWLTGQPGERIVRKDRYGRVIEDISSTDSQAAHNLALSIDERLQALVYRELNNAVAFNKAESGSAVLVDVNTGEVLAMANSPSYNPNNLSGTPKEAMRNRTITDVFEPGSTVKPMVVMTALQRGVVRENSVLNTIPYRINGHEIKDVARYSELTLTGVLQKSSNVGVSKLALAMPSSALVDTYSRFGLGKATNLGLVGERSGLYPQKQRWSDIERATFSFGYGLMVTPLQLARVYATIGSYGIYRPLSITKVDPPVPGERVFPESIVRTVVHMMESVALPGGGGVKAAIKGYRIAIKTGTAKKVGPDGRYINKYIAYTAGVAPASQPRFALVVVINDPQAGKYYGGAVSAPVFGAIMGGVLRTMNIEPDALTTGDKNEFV

Measured: binding

ZipA (endogenous) (from UniProt P77173 1-328)
binds: all assays above
